Here are results for six sequences from publication PMC13270999, “Chronology of tRNA structural dynamics prior to and during interaction with a pseudouridine synthase”.

For at least one entry, the source does not settle the construct or the ends of the probe. Tags and fusion partners may be left off the protein sequences shown.

As a reminder, the Kd is a measure of binding affinity in units of concentration.

This data set deals with T1, GST-Pus4 (Saccharomyces cerevisiae) (UniProt P48567).
T1 sequence (looked up, limits assumed): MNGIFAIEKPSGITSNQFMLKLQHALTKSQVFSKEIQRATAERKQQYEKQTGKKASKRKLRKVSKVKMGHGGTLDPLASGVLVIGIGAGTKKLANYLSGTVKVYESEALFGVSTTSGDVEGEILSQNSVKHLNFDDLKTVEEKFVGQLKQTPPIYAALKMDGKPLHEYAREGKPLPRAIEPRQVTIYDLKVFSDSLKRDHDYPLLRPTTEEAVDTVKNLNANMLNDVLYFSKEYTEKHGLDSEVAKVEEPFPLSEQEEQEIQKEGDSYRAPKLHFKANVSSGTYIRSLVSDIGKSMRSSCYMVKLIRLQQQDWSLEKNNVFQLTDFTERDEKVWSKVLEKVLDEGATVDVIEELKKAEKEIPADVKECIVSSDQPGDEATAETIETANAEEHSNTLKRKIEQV
The data set can be described thus: BLI. Particulars: BLI: 50 mM Tris-HCl pH 7.5, 100 mM KCl, 0.02% Tween-20, 30 °C, recombinant protein, label: 5' biotin.

For “GCUUCUAUGGCCAAGUUGGUAAGGCGCCACACUAGUAAUGUGGAGAUCAUCGGUUCAAAUCCGAUUGGAAGCACCA [Ψ55 tRNA Thr(AGU), Cy3/Cy5]”, the Kd (approximate limit from koff < 0.01 s-1, kon 1.36e5 M-1s-1, pseudouridine at position 55 (second U of CGGUUCAAA), Cy3 at U4 C5, Cy5 at U41 C5) is < 0.13 µM.
With “GCUUCUAUGGCCAAGUUGGUAAGGCGCCACACUAGUAAUGUGGAGAUCAUCGGUUCAAAUCCGAUUGGAAGCACCA [U55 tRNA Thr(AGU), Cy3/Cy5]”, the dissociation constant Kd (approximate limit from koff < 0.01 s-1, kon 1.36e5 M-1s-1 (bi-exponential fit), Cy3 at U4 C5, Cy5 at U41 C5) was < 0.13 µM.
For “GCUUCAGUAGCUCAGUAGGAAGAGCGUCAGUCUCAUAAUCUGAAGGUCGAGAGUUCGAACCUCCCCUGGAGCACCA [Ψ55 tRNA eMet(CAU), Cy3/Cy5]”, for the setting “approximate limit from koff < 0.01 s-1, kon 1.12e5 M-1s-1, pseudouridine at position 55 (second U of GAGAGUUCGAA), Cy3 at U4 C5, Cy5 at U41 C5”, the Kd is < 0.13 µM.
Consider “GCUUCAGUAGCUCAGUAGGAAGAGCGUCAGUCUCAUAAUCUGAAGGUCGAGAGUUCGAACCUCCCCUGGAGCACCA [U55 tRNA eMet(CAU), Cy3/Cy5]”, for which, for the setting “approximate limit from koff < 0.01 s-1, kon 1.00e5 M-1s-1 (bi-exponential fit), Cy3 at U4 C5, Cy5 at U41 C5”, the Kd is < 0.13 µM.
Regarding “GCUUCAGUAGCUCAGUAGGAAGAGCGUCAGUCUCAUAAUCUGAAGGUCGAGAGUUCGAACCUCCCCUGGAGCACCA [Ψ55 tRNA eMet(CAU), no fluorophores]”, under “approximate limit from koff < 0.01 s-1, pseudouridine at position 55 (second U of GAGAGUUCGAA)”, the Kd was < 0.13 µM.
In the case of “GCUUCAGUAGCUCAGUAGGAAGAGCGUCAGUCUCAUAAUCUGAAGGUCGAGAGUUCGAACCUCCCCUGGAGCACCA [U55 tRNA eMet(CAU), no fluorophores]”, the Kd (approximate limit from koff < 0.01 s-1, kon 5.84e4 M-1s-1) is < 0.13 µM.
